The values below come from patent US20190160257A1, “METHODS AND SYSTEMS FOR INHIBITING VASCULAR INFLAMMATION” (Mercator MedSystems, Inc., priority 2002, published 2019).

The conditions of the data set: after adventitial infusion of dosages lower than those approved for soft-tissue infiltration.

Regarding `C[C@@H]1C[C@H]2[C@@H]3CCC4=CC(=O)C=C[C@]4(C)[C@@]3(F)[C@@H](O)C[C@]2(C)[C@@]1(O)C(=O)CO` [dexamethasone], the “retention in blood vessel wall and adventitia at therapeutic concentrations” value is given as “at least 7 days”.
